Reference: patent US8796330B2, “Inhibitors of histone deacetylase and prodrugs thereof” (Methylgene Inc., priority 2006, dated 2014)
At least one structure is not confirmed: it was looked up by name or label, or the drawing left a doubt.

System: histone deacetylase in nuclear extracts from H446 cells (pooled HDACs)
Experiment: Inhibition of histone deacetylase in H446 nuclear extracts ([3H]-acetylated histone substrate)
Format: biochemical, human
Details: H446 nuclear extract

Row | IC50 | SMILES
1 | 10 µM | CC(C)(C)c1ccc(S(=O)(=O)Nc2ccc(CC(=O)NO)cc2)cc1 [Compound 11, 2-[4-(tert-butylsulfonylamino)-phenyl]-N-hydroxy-acetamide]
2 | 3 µM | O=C(Cc1ccc(NS(=O)(=O)c2ccc3ccccc3c2)cc1)NO [Compound 12, 2-[2-(naphthylsulfonylamino)-phenyl]-N-hydroxy-acetamide]
